Results published in patent US9636427B2, “Process for preparing a pharmaceutical formulation of contrast agents” (GUERBET, priority 2008, dated 2017).
Some results were stated once for a whole list of compounds, not compound by compound. For at least one compound, name, drawing or mass did not settle the structure.

Experiment: Lethal dose (LD50) of free macrocyclic chelates, excipients X[X',L] and Gd chelates, table 1 of U.S. Pat. No. 7,385,041
Settings: times more toxic, from LD50 values

O=C(O)CN1CCN(CC(=O)O)CCN(CC(=O)O)CCN(CC(=O)O)CC1 [DOTA, 1,4,7,10-Tetraazacyclododecane-N,N′,N″,N″′-tetraacetic acid]
toxicity of free macrocyclic chelate relative to the same macrocycle under the form X[X',L]: at least 10 times

CC(O)CN1CCN(CC(=O)O)CCN(CC(=O)O)CCN(CC(=O)O)CC1 (centres unmarked) [HP-DO3A]
toxicity of free macrocyclic chelate relative to the same macrocycle under the form X[X',L]: at least 10 times
